Measurements as given in the supplement of paper PMC7666118.
The list shows a part of the results.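 The calls were made as follows: active = dose-dependent thermal stabilisation significant by F-test of dose-response against flat model at 10% FDR; inactive = not significant.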

The chains behind the UniProt entries cited, without tags or fusion partners. Where a name states a change or a piece, a line headed by the entry shows the natural chain unless it says otherwise.
UniProt P36543, whole entry: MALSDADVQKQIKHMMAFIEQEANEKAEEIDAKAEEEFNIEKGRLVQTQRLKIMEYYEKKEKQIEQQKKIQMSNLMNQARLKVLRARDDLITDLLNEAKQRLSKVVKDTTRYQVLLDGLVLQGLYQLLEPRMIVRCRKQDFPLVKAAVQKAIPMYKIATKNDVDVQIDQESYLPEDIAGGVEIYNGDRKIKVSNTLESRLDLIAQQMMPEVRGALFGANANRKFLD
UniProt Q04656: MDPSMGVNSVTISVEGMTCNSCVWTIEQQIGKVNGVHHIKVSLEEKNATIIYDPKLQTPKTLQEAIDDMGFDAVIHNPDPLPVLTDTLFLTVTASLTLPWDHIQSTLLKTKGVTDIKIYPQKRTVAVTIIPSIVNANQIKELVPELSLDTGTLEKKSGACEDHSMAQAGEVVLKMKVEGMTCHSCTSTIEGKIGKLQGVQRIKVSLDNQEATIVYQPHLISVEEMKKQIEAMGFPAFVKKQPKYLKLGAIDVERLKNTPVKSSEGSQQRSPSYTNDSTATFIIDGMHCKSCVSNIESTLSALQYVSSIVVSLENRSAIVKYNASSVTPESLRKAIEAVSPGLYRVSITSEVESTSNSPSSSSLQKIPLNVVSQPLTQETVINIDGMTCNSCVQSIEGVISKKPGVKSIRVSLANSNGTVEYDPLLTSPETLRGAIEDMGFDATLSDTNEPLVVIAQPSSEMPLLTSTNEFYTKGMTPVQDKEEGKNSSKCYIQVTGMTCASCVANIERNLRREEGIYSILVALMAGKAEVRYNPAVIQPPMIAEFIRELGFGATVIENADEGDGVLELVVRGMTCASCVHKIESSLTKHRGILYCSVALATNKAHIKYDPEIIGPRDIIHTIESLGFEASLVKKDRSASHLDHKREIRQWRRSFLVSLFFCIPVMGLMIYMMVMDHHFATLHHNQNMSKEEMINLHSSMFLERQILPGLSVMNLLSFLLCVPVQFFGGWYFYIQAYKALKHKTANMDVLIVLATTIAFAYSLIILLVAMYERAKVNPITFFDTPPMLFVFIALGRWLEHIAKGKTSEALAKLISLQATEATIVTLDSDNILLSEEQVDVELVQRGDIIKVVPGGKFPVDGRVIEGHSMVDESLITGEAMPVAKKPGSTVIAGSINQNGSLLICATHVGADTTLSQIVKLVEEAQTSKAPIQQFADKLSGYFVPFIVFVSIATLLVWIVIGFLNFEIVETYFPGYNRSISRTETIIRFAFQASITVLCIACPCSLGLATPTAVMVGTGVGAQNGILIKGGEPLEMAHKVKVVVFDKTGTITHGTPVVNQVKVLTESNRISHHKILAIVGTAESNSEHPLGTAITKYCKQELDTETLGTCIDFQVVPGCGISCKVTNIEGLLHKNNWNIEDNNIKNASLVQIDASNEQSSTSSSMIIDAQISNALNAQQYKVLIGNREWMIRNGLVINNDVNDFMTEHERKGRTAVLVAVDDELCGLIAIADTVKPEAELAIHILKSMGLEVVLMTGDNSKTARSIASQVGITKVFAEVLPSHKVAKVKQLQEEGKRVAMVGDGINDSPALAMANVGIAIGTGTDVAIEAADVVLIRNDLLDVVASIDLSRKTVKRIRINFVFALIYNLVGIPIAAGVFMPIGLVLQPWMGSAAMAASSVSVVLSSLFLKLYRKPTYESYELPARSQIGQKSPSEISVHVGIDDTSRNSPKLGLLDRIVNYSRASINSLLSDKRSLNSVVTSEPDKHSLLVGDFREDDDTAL
UniProt Q9BQ61: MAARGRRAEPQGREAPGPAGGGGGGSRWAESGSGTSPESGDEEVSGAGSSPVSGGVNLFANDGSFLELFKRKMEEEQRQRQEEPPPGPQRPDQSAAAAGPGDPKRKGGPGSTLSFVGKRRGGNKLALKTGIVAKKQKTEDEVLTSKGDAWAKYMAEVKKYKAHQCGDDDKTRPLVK
UniProt Q9Y2Y0: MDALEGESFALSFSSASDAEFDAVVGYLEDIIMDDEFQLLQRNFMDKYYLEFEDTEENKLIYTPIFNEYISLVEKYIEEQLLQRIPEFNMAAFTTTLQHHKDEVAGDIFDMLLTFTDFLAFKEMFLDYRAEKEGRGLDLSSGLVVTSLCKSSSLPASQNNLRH
UniProt Q13895: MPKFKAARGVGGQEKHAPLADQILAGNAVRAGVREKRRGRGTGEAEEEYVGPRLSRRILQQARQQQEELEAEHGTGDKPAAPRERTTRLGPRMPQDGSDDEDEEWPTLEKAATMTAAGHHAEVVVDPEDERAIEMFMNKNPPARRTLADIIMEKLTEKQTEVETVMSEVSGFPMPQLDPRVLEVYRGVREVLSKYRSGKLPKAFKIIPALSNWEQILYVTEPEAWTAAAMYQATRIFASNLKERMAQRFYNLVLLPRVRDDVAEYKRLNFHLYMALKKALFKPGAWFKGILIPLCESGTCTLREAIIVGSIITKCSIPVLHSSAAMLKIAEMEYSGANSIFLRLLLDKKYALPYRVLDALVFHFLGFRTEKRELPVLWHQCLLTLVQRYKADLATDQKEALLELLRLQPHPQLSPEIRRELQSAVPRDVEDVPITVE
UniProt Q9H3K6: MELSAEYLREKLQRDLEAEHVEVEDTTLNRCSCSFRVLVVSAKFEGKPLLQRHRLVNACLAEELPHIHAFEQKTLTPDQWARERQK
UniProt Q6ZNE5, whole entry: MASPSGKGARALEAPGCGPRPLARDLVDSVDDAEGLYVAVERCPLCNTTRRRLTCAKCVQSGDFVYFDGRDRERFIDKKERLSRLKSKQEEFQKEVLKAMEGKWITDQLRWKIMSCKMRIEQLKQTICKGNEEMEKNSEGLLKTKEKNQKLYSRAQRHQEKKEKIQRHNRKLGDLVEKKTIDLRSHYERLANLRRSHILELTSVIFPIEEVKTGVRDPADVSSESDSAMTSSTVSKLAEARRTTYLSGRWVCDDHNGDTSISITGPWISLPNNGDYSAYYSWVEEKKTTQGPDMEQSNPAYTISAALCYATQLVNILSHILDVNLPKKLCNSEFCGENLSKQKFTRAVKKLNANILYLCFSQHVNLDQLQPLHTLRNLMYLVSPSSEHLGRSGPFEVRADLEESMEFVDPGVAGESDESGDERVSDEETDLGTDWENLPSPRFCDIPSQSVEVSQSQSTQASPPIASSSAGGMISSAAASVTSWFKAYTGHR
UniProt Q9NWV4: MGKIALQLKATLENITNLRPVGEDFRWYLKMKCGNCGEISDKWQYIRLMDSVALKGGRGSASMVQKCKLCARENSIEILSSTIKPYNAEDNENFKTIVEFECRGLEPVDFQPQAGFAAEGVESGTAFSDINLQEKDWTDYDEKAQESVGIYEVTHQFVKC
UniProt Q14444, whole entry: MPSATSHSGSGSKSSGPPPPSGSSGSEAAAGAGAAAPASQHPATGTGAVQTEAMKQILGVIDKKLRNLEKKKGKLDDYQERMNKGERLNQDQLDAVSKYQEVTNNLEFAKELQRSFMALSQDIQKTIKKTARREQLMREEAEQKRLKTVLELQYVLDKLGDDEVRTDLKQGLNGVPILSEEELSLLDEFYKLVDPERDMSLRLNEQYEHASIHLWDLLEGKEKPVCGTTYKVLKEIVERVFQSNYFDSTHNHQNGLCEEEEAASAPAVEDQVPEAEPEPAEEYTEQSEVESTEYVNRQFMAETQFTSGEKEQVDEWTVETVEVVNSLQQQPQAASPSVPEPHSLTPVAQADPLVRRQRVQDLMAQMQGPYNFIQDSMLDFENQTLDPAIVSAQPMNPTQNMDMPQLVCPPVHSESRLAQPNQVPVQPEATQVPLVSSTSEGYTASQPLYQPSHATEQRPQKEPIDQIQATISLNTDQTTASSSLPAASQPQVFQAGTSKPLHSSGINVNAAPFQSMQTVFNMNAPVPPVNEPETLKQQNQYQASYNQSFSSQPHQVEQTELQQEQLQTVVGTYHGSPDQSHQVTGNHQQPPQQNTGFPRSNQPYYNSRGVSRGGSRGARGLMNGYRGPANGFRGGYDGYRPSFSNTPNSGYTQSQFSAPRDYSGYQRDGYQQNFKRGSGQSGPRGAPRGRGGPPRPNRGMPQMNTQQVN
UniProt P57076: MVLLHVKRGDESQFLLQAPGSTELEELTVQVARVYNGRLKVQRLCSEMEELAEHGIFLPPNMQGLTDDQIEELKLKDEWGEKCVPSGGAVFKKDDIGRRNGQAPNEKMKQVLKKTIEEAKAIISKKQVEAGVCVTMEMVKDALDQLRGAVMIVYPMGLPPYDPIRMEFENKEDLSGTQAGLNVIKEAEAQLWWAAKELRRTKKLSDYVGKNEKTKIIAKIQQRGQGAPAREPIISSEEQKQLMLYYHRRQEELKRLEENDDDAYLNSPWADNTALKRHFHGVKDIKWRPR
UniProt P52566: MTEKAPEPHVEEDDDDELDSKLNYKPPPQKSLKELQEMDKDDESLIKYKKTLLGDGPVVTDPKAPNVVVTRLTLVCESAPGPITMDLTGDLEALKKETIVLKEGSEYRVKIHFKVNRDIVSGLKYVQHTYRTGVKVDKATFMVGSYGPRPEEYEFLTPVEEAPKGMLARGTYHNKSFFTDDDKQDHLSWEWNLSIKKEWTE
UniProt Q9P0P8: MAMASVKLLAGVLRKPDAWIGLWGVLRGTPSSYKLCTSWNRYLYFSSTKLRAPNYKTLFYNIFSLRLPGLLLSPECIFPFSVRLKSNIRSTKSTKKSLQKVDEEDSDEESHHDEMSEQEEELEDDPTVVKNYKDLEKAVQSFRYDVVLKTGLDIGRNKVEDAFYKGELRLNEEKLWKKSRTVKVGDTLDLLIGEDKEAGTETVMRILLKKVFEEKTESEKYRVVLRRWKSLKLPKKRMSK
UniProt P36404: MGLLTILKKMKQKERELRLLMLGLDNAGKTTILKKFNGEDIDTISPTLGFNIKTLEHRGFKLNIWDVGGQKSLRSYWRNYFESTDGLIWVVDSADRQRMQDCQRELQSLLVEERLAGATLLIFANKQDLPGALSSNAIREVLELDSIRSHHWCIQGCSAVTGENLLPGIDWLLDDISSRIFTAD
UniProt Q8N9N5: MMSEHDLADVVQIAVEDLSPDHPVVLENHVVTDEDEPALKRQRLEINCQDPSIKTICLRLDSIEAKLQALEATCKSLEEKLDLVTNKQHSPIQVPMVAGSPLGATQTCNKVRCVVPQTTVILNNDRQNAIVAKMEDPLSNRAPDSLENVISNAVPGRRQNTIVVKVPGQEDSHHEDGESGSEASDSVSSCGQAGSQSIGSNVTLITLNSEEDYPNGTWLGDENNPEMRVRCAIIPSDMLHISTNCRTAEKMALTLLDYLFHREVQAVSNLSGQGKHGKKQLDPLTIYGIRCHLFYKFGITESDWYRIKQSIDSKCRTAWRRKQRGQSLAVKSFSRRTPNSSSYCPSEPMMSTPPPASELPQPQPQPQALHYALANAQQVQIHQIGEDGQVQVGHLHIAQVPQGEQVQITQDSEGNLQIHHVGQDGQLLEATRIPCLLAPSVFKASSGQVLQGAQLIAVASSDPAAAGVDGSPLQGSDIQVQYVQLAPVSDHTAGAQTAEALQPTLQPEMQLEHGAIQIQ
UniProt P46379: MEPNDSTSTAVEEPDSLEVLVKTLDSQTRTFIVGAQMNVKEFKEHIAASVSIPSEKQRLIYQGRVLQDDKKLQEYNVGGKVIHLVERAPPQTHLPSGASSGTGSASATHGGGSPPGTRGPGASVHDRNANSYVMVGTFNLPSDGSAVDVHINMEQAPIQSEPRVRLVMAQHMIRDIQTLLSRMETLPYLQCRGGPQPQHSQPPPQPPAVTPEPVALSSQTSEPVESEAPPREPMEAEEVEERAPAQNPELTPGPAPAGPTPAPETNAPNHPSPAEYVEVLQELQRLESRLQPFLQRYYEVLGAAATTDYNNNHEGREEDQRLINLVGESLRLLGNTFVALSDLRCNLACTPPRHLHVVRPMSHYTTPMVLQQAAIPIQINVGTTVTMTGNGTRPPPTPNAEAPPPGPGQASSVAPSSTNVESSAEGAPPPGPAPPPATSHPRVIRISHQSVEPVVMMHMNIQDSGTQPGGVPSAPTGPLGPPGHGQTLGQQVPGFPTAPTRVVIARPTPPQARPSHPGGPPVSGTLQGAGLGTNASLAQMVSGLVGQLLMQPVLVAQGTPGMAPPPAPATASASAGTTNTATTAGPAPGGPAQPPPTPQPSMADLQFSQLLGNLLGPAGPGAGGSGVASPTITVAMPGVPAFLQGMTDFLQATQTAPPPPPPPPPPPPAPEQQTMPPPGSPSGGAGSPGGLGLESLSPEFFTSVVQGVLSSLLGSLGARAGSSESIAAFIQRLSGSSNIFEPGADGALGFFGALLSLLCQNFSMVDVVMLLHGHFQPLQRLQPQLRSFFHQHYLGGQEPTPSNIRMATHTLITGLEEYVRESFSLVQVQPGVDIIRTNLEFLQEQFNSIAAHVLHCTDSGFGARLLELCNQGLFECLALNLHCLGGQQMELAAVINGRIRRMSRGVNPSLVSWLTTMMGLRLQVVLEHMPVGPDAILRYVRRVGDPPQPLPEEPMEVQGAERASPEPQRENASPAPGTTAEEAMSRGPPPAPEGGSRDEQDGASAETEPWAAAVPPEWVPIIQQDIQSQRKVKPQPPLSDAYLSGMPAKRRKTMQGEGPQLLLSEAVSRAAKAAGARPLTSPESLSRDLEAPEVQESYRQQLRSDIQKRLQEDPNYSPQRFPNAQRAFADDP
UniProt Q8WUW1: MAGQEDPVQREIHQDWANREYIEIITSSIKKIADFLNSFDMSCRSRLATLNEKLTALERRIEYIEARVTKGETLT

These targets were tested with Nc1nc2c(ncn2[C@@H]2O[C@H](COP(=O)(O)OP(=O)(O)OP(=O)(O)O)[C@@H](O)[C@H]2O)c(=O)[nH]1 (assay: dose-dependent thermal stabilisation call (2D-TPP, DLPTP, 10% FDR) (binary (1 = stabilised)); higher = stabilised by the compound). Details: system: Jurkat gel-filtered lysate; concentration range 1-500 µM.
Protocol: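 2D thermal proteome profiling in gel-filtered Jurkat E6.1 lysate (2 mg/ml) treated with NaGTP (0, 1, 10, 100, 500 uM) for 10 min at room temperature, then heated 3 min at one of 12 temperatures (42-63.9 C). Soluble protein was quantified by TMT10 MS. The value is the DLPTP call of the paper: dose-dependent thermal stabilisation over all temperatures at 10% FDR (F-test of a dose-response against a flat model); one experiment, one call per tested protein.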

Target	dose-dependent thermal stabilisation call
ATP6V1E1 (UniProt P36543)	inactive: 0
ATIC (UniProt P31939)	inactive: 0
BAHD1 (UniProt Q8TBE0)	inactive: 0
BUB1B (UniProt O60566)	inactive: 0
ARL6 (UniProt Q9H0F7)	active: 1
ATP7A (UniProt Q04656)	inactive: 0
C19orf43 (UniProt Q9BQ61)	inactive: 0
ARL2BP (UniProt Q9Y2Y0)	inactive: 0
ATG4B (UniProt Q9Y4P1)	inactive: 0
BYSL (UniProt Q13895)	inactive: 0
BOLA2, BOLA2B (UniProt Q9H3K6)	inactive: 0
ATG3 (UniProt Q9NT62)	active: 1
ATG14 (UniProt Q6ZNE5)	inactive: 0
BCAS2 (UniProt O75934)	inactive: 0
ASAH1 (UniProt Q13510)	inactive: 0
C2CD5 (UniProt Q86YS7)	inactive: 0
C1orf123 (UniProt Q9NWV4)	inactive: 0
ASPSCR1 (UniProt Q9BZE9)	inactive: 0
CAPRIN1 (UniProt Q14444)	inactive: 0
BOLA1 (UniProt Q9Y3E2)	inactive: 0

Target	dose-dependent thermal stabilisation call
C5orf22 (UniProt Q49AR2)	inactive: 0
BUD13 (UniProt Q9BRD0)	inactive: 0
C21orf59 (UniProt P57076)	inactive: 0
BPTF (UniProt Q12830)	inactive: 0
CAPN1 (UniProt P07384)	inactive: 0
C7orf25 (UniProt Q9BPX7)	inactive: 0
ARNT (UniProt P27540)	inactive: 0
ARHGDIB (UniProt P52566)	inactive: 0
C6orf203 (UniProt Q9P0P8)	inactive: 0
C21orf33 (UniProt P0DPI2)	inactive: 0
BMP2K (UniProt Q9NSY1)	inactive: 0
ARL2 (UniProt P36404)	active: 1
CARHSP1 (UniProt Q9Y2V2)	inactive: 0
BANP (UniProt Q8N9N5)	inactive: 0
CAP1 (UniProt Q01518)	inactive: 0
ATP6V1B2 (UniProt P21281)	inactive: 0
ARID2 (UniProt Q68CP9)	inactive: 0
CARM1 (UniProt Q86X55)	inactive: 0
BAG6 (UniProt P46379)	active: 1
BRK1 (UniProt Q8WUW1)	inactive: 0

Some of the entries so far, in markdown:

| Target | dose-dependent thermal stabilisation call |
| --- | --- |
| ATG14 (UniProt Q6ZNE5) | inactive: 0 |
| BCAS2 (UniProt O75934) | inactive: 0 |
